# Test results from paper PMC5354453.
# Sequences of proteins named here, by UniProt entry; tags and fusion partners are left off. A change or cut given only in a name is not applied to a line headed by its entry.
# UniProt P04150: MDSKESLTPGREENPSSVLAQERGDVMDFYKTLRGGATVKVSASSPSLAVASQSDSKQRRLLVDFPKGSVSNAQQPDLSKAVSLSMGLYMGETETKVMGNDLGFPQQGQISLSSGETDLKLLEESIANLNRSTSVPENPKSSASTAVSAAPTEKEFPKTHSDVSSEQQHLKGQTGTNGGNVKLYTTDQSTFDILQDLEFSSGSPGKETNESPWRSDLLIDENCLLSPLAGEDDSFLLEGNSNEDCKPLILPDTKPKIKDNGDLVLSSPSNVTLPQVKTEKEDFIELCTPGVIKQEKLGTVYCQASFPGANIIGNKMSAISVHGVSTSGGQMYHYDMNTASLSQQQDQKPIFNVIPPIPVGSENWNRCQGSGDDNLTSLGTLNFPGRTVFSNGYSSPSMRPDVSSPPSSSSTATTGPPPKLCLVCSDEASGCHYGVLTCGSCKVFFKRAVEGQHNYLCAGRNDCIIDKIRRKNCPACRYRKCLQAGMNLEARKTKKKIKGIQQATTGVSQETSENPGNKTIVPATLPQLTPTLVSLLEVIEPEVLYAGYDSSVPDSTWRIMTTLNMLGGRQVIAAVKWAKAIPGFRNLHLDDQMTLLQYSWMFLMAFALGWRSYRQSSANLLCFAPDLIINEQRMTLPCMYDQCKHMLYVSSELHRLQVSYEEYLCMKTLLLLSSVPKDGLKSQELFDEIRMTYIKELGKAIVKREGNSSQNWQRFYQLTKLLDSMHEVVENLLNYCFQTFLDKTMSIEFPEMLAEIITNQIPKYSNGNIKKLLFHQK
# No constants are given. Whether binding was seen depends on the method and setting. Binding seen in cells or lysates may run through a third protein. Some entries that bind do so weakly or less than the wild type.
# B1: p23 (protein, UniProt Q15185 1-160)
# chain: MQPASAKWYDRRDYVFIEFCVEDSKDVNVNFEKSKLTFSCLGGSDNFKHLNEIDLFHCIDPNDSKHKRTDRSILCCLRKGESGQSWPRLTKERAKLNWLSVDFNNWKDWEDDSDEDMSNFDRFSEMMNNMGGDEDVDLPEVDGADDDSQDSDDEKMPDLE
# B2: FKBP52 (protein, UniProt Q02790 1-459)
# chain: MTAEEMKATESGAQSAPLPMEGVDISPKQDEGVLKVIKREGTGTEMPMIGDRVFVHYTGWLLDGTKFDSSLDRKDKFSFDLGKGEVIKAWDIAIATMKVGEVCHITCKPEYAYGSAGSPPKIPPNATLVFEVELFEFKGEDLTEEEDGGIIRRIQTRGEGYAKPNEGAIVEVALEGYYKDKLFDQRELRFEIGEGENLDLPYGLERAIQRMEKGEHSIVYLKPSYAFGSVGKEKFQIPPNAELKYELHLKSFEKAKESWEMNSEEKLEQSTIVKERGTVYFKEGKYKQALLQYKKIVSWLEYESSFSNEEAQKAQALRLASHLNLAMCHLKLQAFSAAIESCNKALELDSNNEKGLFRRGEAHLAVNDFELARADFQKVLQLYPNNKAAKTQLAVCQQRIRRQLAREKKLYANMFERLAEEENKAKAEASSGDHPTDTEMKEEQKSNTAGSQSQVETEA
# Molecular target: activation-labile mutant glucocorticoid receptor GR^act/l (hGR L753F) (human (endogenous in CEM-3R43)) (UniProt P04150)
# Experiment: co-IP; CEM-3R43 cytosolic extracts: control without TMAO, plus 3 M TMAO, or from cells treated with 50 mM TMAO and kept in TMAO; primary antibody to GR, blots with antibodies to the chaperones
row,binding,Molecule
1,binds,HOP (from UniProt P31948 1-543)
2,binds,B1
3,binds,B2
